Measurements taken from publication PMC2903597.
Results are given in words; binding and its absence hold for the method and conditions named. Binding seen in cells or lysates may run through a third protein. Some entries that bind do so weakly or less than the wild type. Where a sequence is shown, tags or fusion partners need not be part of it.

The chains behind the UniProt entries cited, without tags or fusion partners.
UniProt Q9Y4B6: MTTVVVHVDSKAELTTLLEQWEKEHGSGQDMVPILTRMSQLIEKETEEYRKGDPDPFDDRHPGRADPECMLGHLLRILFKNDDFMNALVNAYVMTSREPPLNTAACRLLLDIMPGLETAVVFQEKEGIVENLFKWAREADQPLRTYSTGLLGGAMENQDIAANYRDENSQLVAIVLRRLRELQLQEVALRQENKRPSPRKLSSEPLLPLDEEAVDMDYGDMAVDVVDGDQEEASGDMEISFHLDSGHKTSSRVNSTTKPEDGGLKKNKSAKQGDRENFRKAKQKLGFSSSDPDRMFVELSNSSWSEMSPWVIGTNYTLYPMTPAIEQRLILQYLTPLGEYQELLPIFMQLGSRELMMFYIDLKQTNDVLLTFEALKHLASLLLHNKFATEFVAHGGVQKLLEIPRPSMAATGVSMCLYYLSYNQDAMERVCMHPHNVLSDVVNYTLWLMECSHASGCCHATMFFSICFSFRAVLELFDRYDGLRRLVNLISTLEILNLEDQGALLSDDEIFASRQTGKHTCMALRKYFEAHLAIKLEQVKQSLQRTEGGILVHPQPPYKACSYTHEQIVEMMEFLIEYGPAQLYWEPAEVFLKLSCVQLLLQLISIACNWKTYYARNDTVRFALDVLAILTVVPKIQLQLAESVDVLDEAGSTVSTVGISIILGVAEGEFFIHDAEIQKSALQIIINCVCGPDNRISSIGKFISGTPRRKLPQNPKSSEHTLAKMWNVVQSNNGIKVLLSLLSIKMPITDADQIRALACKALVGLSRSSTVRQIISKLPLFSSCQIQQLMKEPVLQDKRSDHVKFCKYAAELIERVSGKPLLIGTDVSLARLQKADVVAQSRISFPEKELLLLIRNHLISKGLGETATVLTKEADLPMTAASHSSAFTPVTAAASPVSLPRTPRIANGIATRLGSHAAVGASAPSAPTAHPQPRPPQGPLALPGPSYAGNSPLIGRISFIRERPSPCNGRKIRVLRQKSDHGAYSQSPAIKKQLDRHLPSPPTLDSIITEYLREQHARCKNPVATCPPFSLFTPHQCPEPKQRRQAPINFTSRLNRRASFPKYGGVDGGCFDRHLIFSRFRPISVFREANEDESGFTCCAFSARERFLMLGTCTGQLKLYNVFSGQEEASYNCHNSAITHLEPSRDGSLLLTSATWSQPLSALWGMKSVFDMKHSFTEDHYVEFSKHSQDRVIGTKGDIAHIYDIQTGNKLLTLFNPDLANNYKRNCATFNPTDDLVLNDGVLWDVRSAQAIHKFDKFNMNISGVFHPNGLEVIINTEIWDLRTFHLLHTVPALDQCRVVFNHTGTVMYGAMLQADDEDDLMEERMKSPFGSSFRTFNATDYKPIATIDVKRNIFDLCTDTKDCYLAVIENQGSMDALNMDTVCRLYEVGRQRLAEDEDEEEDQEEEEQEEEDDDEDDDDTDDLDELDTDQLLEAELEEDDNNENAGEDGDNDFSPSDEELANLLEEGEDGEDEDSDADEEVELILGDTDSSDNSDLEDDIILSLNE

Molecular target: T1, GFP-tagged mLgl2 (UniProt Q3TJ91)
T1 sequence: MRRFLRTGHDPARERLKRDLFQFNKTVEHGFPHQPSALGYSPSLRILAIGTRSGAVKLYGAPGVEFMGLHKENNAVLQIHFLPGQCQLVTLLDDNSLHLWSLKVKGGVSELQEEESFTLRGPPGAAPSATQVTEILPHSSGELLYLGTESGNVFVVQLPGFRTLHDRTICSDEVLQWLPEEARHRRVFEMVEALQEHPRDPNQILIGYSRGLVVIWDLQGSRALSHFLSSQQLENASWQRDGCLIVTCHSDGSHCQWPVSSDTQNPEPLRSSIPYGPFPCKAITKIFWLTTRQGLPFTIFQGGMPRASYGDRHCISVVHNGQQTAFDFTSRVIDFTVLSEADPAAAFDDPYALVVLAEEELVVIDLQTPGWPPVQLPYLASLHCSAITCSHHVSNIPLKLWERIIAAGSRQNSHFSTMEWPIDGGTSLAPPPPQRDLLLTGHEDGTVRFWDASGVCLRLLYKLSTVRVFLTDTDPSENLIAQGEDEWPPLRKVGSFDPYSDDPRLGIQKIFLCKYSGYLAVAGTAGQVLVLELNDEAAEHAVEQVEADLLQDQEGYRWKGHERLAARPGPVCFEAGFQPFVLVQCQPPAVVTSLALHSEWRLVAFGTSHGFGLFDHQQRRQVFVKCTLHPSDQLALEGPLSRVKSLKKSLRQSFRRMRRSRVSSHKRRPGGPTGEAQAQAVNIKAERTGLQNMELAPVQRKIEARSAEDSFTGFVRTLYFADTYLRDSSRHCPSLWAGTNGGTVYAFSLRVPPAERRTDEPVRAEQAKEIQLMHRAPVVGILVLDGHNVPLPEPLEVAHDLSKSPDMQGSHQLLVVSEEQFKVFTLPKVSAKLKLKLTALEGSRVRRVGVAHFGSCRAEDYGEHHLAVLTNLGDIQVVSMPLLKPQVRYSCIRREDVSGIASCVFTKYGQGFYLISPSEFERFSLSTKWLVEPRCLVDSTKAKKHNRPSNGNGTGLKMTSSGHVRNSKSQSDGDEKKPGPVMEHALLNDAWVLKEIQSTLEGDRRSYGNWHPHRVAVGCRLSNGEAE
Assay: co-IP; lysates of GFP-mLgl2-expressing MCF-7 cells, immunoprecipitation with anti-GFP antibody, Western blotting with anti-VprBP antibody

Substance: VprBP (viral protein R-binding protein), endogenous in MCF-7 cells (from UniProt Q9Y4B6 1-1507)
- binding: binds
